{"source": "PubChem BioAssay AID1508588 (Peter MacCallum Cancer Centre, 2020)", "assay": "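Knock-downs boosting vemurafenib effects on melanoma cell growth or lactate release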 (primary screen)", "cell system": "human WM266.4 melanoma cells (BRAF V600 mutant)", "knock-down reagent": "siRNA pool against human genes, 40 nM", "duration": "96 h from transfection to read-out", "treatment": "vemurafenib 300 nM (about IC25), added 48 h after transfection, for 48 h; comparison arm got DMSO vehicle only", "measurement": "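Ratios to non-targeting siRNA for cell gain, counted as DAPI nuclei after minus before drug and averaged over two replicates, and for absorbance-read medium lactate per cell; both binned into fold-change classes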", "direction": "cell gain with vemurafenib: higher = more cell gain than with non-targeting siRNA; lactate per cell with vemurafenib: higher = more lactate made per cell", "active means": "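a knock-down counts as enhancing when its fold-change classes with vehicle and with vemurafenib, taken together, show a stronger drug effect on cell gain or lactate per cell; exact class pairs not stated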", "calls": "active = enhances vemurafenib effect; inactive = no enhancement seen", "note": "Shown is an unselected part of about 18,000 deposited reagents. In the full data, 790 (4.4%) were called active. 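Calls rest on a combination of fold-change classes in drug and vehicle arms, not all shown here.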 Reagent sequences are not shown."}
{"target gene": "CYB5R3", "cell gain with vemurafenib": 0.66, "lactate per cell with vemurafenib": 0.26, "outcome": "inactive"}
{"target gene": "RDH8", "cell gain with vemurafenib": 0.92, "lactate per cell with vemurafenib": 1.57, "outcome": "inactive"}
{"target gene": "INPP5A", "cell gain with vemurafenib": 0.62, "lactate per cell with vemurafenib": 0.46, "outcome": "active"}
{"target gene": "PDZRN3", "cell gain with vemurafenib": 1.14, "lactate per cell with vemurafenib": 0.7, "outcome": "inactive"}
{"target gene": "NFATC1", "cell gain with vemurafenib": 0.8, "lactate per cell with vemurafenib": 0.84, "outcome": "inactive"}
{"target gene": "MRPL21", "cell gain with vemurafenib": 0.68, "lactate per cell with vemurafenib": 1.39, "outcome": "inactive"}
{"target gene": "RIDA", "cell gain with vemurafenib": 0.73, "lactate per cell with vemurafenib": 0.67, "outcome": "inactive"}
{"target gene": "VWA8", "cell gain with vemurafenib": 1.11, "lactate per cell with vemurafenib": 0.52, "outcome": "inactive"}
{"target gene": "PGBDF", "cell gain with vemurafenib": 0.41, "lactate per cell with vemurafenib": 0.91, "outcome": "inactive"}
{"target gene": "TEX14", "cell gain with vemurafenib": 0.2, "lactate per cell with vemurafenib": 1.46, "outcome": "inactive"}
{"target gene": "MAN1B1", "cell gain with vemurafenib": 0.46, "lactate per cell with vemurafenib": 0.6, "outcome": "inactive"}
{"target gene": "UNC13B", "cell gain with vemurafenib": 0.85, "lactate per cell with vemurafenib": 1.15, "outcome": "inactive"}
{"target gene": "ANAPC2", "cell gain with vemurafenib": 0.61, "lactate per cell with vemurafenib": 1.12, "outcome": "inactive"}
{"target gene": "MRC2", "cell gain with vemurafenib": 0.82, "lactate per cell with vemurafenib": 0.82, "outcome": "inactive"}
{"target gene": "CPNE8", "cell gain with vemurafenib": 0.93, "lactate per cell with vemurafenib": 0.63, "outcome": "inactive"}
{"target gene": "DARS1", "cell gain with vemurafenib": 0.45, "lactate per cell with vemurafenib": 1.46, "outcome": "inactive"}
{"target gene": "RNF151", "cell gain with vemurafenib": 0.58, "lactate per cell with vemurafenib": 0.96, "outcome": "inactive"}
{"target gene": "ING2", "cell gain with vemurafenib": 0.22, "lactate per cell with vemurafenib": 1.42, "outcome": "inactive"}
{"target gene": "SH3BGR", "cell gain with vemurafenib": 0.43, "lactate per cell with vemurafenib": 0.27, "outcome": "inactive"}
{"target gene": "NLRP7", "cell gain with vemurafenib": 0.32, "lactate per cell with vemurafenib": 2.75, "outcome": "inactive"}
{"target gene": "GYG2", "cell gain with vemurafenib": 1.13, "lactate per cell with vemurafenib": 1.09, "outcome": "inactive"}
{"target gene": "TCEAL4", "cell gain with vemurafenib": 1.04, "lactate per cell with vemurafenib": 0.4, "outcome": "inactive"}
{"target gene": "RAB3IL1", "cell gain with vemurafenib": 0.79, "lactate per cell with vemurafenib": 0.79, "outcome": "inactive"}
{"target gene": "FABP5", "cell gain with vemurafenib": 0.7, "lactate per cell with vemurafenib": 0.16, "outcome": "inactive"}
{"target gene": "TMEM25", "cell gain with vemurafenib": 0.59, "lactate per cell with vemurafenib": 0.32, "outcome": "inactive"}
{"target gene": "ERI2", "cell gain with vemurafenib": 0.8, "lactate per cell with vemurafenib": 0.87, "outcome": "inactive"}
{"target gene": "ZNF749", "cell gain with vemurafenib": 1.62, "lactate per cell with vemurafenib": 0.81, "outcome": "inactive"}
